US6987132B1, “Enediyne compounds and methods related thereto” (Advanced Research and Technology Institute, Inc., priority 2000, dated 2006)
Some results were stated once for a whole list of compounds, not compound by compound.

Test: Thermal cyclization temperature and stability of free ligands in solution
Conditions: free ligand in solution

Q: Which “stable in solution (time)” value does the source give for C(#CCN=Cc1ccccn1)/C=C\C#CCN=Cc1ccccn1 (stereo in doubt) [Compound 14, (Z)-N,N′-Bis[1-pyridin-2-yl-meth-(E)-ylidene]oct-4-ene-2,6-diyne-1,8-diamine] here?
A: over 24 hours
